Holding throughout (details): yeast three-hybrid, YBZ-1, SC-Leu-His + 0.5 mM 3-AT, 4 days
Experiment [1] deals with T1, PUM1 PUF domain R2-RRG N899R + Y900R + Q903G (Homo sapiens) (UniProt Q14671).
T1 sequence: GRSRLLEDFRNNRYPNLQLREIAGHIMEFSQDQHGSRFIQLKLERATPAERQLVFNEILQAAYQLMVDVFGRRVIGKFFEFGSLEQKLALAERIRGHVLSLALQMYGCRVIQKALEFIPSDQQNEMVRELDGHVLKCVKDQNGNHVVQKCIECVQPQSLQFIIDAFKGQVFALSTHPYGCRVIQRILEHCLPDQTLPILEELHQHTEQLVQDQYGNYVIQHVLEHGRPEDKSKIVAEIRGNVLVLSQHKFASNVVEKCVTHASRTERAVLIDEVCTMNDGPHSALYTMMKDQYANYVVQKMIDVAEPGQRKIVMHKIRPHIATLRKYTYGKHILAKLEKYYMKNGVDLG

The target of experiment [2] is T2, PUM1 PUF domain R1-GAS S863G + R864A + Q867S (UniProt Q14671).
T2 sequence: T1 sequence with S36G, R37A, Q40S, R72N, R73Y, G76Q

For experiment [3], the target named is T3, PUM1 PUF domain R1-GGE S863G + R864G + Q867E (Homo sapiens) (UniProt Q14671).
T3 sequence: T1 sequence with S36G, R37G, Q40E, R72N, R73Y, G76Q

For experiment [4], the target named is T4, PUM1 PUF domain R1-GWE S863G + R864W + Q867E (Homo sapiens) (UniProt Q14671).
T4 sequence: T1 sequence with S36G, R37W, Q40E, R72N, R73Y, G76Q

Experiment [5] concerns the target T5, PUM1 PUF domain R1-QGR S863Q + R864G + Q867R (Homo sapiens) (UniProt Q14671).
T5 sequence: T1 sequence with S36Q, R37G, Q40R, R72N, R73Y, G76Q

The target in experiment [6] is T6, PUM1 PUF domain R1-SGR R864G + Q867R (Homo sapiens) (UniProt Q14671).
T6 sequence: T1 sequence with R37G, Q40R, R72N, R73Y, G76Q

In experiment [7] the target is T7, PUM1 PUF domain R1-SRD Q867D (Homo sapiens) (UniProt Q14671).
T7 sequence: T1 sequence with Q40D, R72N, R73Y, G76Q

The target in experiment [8] is T8, PUM1 PUF domain R1-SVR R864V + Q867R (Homo sapiens) (UniProt Q14671).
T8 sequence: T1 sequence with R37V, Q40R, R72N, R73Y, G76Q

Experiment [9] addresses T9, PUM1 PUF domain R1-NWG S863N + R864W + Q867G (UniProt Q14671).
T9 sequence: T1 sequence with S36N, R37W, Q40G, R72N, R73Y, G76Q

Experiment [10] deals with T10, PUM1 PUF domain R1-NWS S863N + R864W + Q867S (Homo sapiens) (UniProt Q14671).
T10 sequence: T1 sequence with S36N, R37W, Q40S, R72N, R73Y, G76Q

The target in experiment [11] is T11, PUM1 PUF domain R6-FWR N1043F + Y1044W + Q1047R (UniProt Q14671).
T11 sequence: T1 sequence with R72N, R73Y, G76Q, N216F, Y217W, Q220R

Experiment [12] has as its target T12, PUM1 PUF domain R6-GFG N1043G + Y1044F + Q1047G (UniProt Q14671).
T12 sequence: T1 sequence with R72N, R73Y, G76Q, N216G, Y217F, Q220G

Experiment [13] has as its target T13, PUM1 PUF domain R6-GFS N1043G + Y1044F + Q1047S (UniProt Q14671).
T13 sequence: T1 sequence with R72N, R73Y, G76Q, N216G, Y217F, Q220S

The target of experiment [14] is T14, PUM1 PUF domain R6-GRQ N1043G + Y1044R (UniProt Q14671).
T14 sequence: T1 sequence with R72N, R73Y, G76Q, N216G, Y217R

In experiment [15] the target is T15, PUM1 PUF domain R6-IYS N1043I + Q1047S (UniProt Q14671).
T15 sequence: T1 sequence with R72N, R73Y, G76Q, N216I, Q220S

Experiment [16] addresses T16, PUM1 PUF domain R6-LYL N1043L + Q1047L (UniProt Q14671).
T16 sequence: T1 sequence with R72N, R73Y, G76Q, N216L, Q220L

Experiment [17] deals with T17, PUM1 PUF domain R6-NRG Y1044R + Q1047G (UniProt Q14671).
T17 sequence: T1 sequence with R72N, R73Y, G76Q, Y217R, Q220G

Experiment [18] deals with T18, PUM1 PUF domain R6-SWG N1043S + Y1044W + Q1047G (UniProt Q14671).
T18 sequence: T1 sequence with R72N, R73Y, G76Q, N216S, Y217W, Q220G

Experiment [19] deals with T19, PUM1 PUF domain R6-SWV N1043S + Y1044W + Q1047V (UniProt Q14671).
T19 sequence: T1 sequence with R72N, R73Y, G76Q, N216S, Y217W, Q220V

For experiment [20], the target named is T20, PUM1 PUF domain R6-VFG N1043V + Y1044F + Q1047G (UniProt Q14671).
T20 sequence: T1 sequence with R72N, R73Y, G76Q, N216V, Y217F, Q220G

Changes are numbered by the printed parent chain. The list shows a part of the results. For some of these results: At the low end of the ranking the order means little. Some results are limits rather than exact numbers.

Regarding “GGCUAGAACUAGUGGAUCCCCCGGCGCCCGGCGGCUCGAGCCCGGGUAAGUGUAAAUAGUCUGCAUGCCGCCGGGCGCCAUGCCUGCAGGUCGACUCUAGAAAACAUG”, the binding signal (log2 enrichment (interaction score)) in experiment [1] was -4.94.
For the sequence “GGCUAGAACUAGUGGAUCCCCCGGCGCCCGGCGGCUCGAGCCCGGGUAAGUGUAAAUUGUCUGCAUGCCGCCGGGCGCCAUGCCUGCAGGUCGACUCUAGAAAACAUG”, the binding signal (log2 enrichment (interaction score)) in [2] is -3.99; in [3], -1.27; in [4] it was -0.52; in experiment [5] it was 0.03; in experiment [6] it was -0.66; in experiment [7], -0.71. For the same sequence, in experiment [8], the binding signal (log2 enrichment (interaction score)) was -1.12.
As for “GGCUAGAACUAGUGGAUCCCCCGGCGCCCGGCGGCUCGAGCCCGGGUAAGUGUAAAUCGUCUGCAUGCCGCCGGGCGCCAUGCCUGCAGGUCGACUCUAGAAAACAUG”, the binding signal (log2 enrichment (interaction score)) was -0.82 in experiment [3]; -1.59 in experiment [4]; under -7.92 in experiment [9]; -1.78 in experiment [10]; -1.26 in [7].
In the case of “GGCUAGAACUAGUGGAUCCCCCGGCGCCCGGCGGCUCGAGCCCGGGUAAGUGGAAAUAGUCUGCAUGCCGCCGGGCGCCAUGCCUGCAGGUCGACUCUAGAAAACAUG”, the binding signal (log2 enrichment (interaction score)) in experiment [11] was under -7.48; in experiment [12], -8.15; in experiment [13] it was under -8.51; in [14], -6.74; in experiment [15] it was -6.79; in experiment [16] it was under -7.82. The binding signal (log2 enrichment (interaction score)) in experiment [17] is under -10; in experiment [18] it was -6.48; in experiment [19] it was -7.18; in [20] it was -6.47.
In the case of “GGCUAGAACUAGUGGAUCCCCCGGCGCCCGGCGGCUCGAGCCCGGGUAAGUGUAAAUGGUCUGCAUGCCGCCGGGCGCCAUGCCUGCAGGUCGACUCUAGAAAACAUG”, the binding signal (log2 enrichment (interaction score)) was -5.1 in experiment [2]; -9.05 in [9]; -0.33 in [10]; -0.19 in [5]; -0.9 in experiment [6]; -1.08 in [8].
For “GGCUAGAACUAGUGGAUCCCCCGGCGCCCGGCGGCUCGAGCCCGGGUAAGUGUAAAAAGUCUGCAUGCCGCCGGGCGCCAUGCCUGCAGGUCGACUCUAGAAAACAUG”, the binding signal (log2 enrichment (interaction score)) in experiment [1] was -1.88.
As for “GGCUAGAACUAGUGGAUCCCCCGGCGCCCGGCGGCUCGAGCCCGGGUAAGUGCAAAUAGUCUGCAUGCCGCCGGGCGCCAUGCCUGCAGGUCGACUCUAGAAAACAUG”, the binding signal (log2 enrichment (interaction score)) in experiment [11] was -5.75; in experiment [12], -5.96; in [13], -5.71; in [14], under -7.68; in experiment [15], under -7.51; in [16] it was -6.6. Further, the binding signal (log2 enrichment (interaction score)) was -7.15 in [17], -6.34 in [18], under -7.39 in experiment [19] and under -8.09 in experiment [20].

For the origin of these results see publication PMC8384837.
